# Measurements reported in the supplement of paper PMC10849652.
# Chains of the proteins cited; added tags and fusions are not shown. Lines headed by an entry give the natural chain unless they say otherwise; changes in a name come on top.
# UniProt Q6UWP7: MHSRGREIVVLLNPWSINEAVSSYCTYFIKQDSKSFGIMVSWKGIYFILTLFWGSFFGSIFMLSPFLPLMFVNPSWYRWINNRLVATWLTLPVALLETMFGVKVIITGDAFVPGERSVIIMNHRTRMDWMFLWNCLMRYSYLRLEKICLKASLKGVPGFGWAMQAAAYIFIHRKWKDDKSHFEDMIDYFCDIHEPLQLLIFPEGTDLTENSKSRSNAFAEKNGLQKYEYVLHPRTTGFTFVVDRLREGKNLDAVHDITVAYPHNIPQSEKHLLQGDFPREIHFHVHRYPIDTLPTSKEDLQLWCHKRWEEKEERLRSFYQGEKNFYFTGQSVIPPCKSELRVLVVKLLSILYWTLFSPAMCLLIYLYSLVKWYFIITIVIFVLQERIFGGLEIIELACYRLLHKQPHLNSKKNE
# UniProt Q9Y2Q5, whole entry, looked up: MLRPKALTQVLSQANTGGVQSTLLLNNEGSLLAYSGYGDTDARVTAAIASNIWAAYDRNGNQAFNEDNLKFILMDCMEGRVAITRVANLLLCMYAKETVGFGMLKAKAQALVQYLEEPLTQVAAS
# UniProt Q12907: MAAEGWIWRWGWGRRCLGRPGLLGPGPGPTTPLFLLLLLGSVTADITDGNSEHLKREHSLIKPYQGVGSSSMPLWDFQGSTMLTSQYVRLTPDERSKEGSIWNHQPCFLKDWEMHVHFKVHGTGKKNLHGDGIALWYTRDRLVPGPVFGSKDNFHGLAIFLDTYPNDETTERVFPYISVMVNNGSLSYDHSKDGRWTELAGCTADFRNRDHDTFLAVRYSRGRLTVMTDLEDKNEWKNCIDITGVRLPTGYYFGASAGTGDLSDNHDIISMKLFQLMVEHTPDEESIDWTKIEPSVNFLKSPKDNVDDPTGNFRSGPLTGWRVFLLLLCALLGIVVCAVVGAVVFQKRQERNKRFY
# UniProt Q9H9A6: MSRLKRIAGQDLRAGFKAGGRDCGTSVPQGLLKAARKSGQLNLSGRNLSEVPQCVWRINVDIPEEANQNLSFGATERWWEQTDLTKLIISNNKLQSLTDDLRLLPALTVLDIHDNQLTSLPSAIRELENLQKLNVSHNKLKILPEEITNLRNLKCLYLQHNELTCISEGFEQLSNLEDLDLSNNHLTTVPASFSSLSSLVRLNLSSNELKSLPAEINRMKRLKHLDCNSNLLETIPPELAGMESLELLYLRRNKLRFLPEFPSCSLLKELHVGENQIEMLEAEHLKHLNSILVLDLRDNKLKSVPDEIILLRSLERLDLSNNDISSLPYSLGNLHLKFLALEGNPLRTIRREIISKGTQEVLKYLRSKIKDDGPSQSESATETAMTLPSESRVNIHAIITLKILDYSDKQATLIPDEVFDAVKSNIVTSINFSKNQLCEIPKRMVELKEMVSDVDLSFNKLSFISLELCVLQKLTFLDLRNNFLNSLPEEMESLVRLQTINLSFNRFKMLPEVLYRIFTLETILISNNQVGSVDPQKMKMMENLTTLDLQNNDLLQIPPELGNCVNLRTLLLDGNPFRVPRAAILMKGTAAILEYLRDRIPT
# UniProt Q6YP21: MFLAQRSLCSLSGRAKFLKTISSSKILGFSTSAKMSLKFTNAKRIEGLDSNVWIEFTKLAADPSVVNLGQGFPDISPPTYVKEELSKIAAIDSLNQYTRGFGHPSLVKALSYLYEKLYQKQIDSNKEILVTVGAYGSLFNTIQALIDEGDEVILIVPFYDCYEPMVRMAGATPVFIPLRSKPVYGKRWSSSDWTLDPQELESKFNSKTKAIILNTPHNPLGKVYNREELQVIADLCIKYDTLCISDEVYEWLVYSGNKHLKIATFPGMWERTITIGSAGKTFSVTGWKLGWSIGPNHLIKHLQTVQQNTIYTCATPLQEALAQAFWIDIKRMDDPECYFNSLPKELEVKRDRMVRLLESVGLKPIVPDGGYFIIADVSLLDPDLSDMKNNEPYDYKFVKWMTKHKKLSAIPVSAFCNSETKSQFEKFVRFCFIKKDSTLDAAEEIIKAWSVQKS
# UniProt Q9H008: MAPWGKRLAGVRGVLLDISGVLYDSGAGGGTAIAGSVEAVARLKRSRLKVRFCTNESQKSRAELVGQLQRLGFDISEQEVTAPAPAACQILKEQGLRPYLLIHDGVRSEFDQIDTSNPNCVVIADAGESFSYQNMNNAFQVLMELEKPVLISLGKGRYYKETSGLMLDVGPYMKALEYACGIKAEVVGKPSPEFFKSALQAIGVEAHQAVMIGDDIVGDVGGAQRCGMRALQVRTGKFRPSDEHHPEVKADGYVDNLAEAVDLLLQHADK
# UniProt Q8N1G4: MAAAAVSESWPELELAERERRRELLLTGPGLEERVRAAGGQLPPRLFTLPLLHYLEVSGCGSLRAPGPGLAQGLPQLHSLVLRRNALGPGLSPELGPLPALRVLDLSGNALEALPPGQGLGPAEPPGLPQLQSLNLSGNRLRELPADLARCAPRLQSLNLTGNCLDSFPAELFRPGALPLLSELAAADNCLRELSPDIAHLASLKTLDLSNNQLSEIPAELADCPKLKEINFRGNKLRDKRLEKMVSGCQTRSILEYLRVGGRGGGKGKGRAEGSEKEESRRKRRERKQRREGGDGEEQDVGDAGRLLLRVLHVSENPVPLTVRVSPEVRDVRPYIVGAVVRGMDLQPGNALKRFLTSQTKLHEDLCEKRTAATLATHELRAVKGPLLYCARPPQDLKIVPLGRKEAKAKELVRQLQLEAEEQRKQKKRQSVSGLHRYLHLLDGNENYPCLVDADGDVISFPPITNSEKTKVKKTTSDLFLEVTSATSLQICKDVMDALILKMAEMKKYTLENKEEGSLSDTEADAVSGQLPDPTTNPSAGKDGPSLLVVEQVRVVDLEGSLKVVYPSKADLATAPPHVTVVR
# UniProt Q96EM0: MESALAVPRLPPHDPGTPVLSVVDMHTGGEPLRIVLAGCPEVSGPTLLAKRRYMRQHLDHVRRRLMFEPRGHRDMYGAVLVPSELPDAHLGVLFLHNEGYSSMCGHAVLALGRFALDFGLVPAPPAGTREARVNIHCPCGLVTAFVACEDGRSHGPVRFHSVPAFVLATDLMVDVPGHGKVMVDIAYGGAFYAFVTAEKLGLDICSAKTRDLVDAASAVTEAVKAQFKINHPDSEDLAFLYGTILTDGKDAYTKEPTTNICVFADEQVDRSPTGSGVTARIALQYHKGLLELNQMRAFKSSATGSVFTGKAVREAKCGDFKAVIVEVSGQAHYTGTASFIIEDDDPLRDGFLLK
# UniProt P48059, whole entry, looked up: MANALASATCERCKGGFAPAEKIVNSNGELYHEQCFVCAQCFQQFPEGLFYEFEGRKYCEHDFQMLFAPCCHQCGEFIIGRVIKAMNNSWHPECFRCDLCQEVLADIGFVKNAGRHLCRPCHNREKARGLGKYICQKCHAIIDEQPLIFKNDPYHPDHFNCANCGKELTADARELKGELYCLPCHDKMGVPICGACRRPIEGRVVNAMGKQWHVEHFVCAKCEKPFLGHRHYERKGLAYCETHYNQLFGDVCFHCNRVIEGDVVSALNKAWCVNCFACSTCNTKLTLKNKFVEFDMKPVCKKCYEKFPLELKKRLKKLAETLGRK
# UniProt Q15031: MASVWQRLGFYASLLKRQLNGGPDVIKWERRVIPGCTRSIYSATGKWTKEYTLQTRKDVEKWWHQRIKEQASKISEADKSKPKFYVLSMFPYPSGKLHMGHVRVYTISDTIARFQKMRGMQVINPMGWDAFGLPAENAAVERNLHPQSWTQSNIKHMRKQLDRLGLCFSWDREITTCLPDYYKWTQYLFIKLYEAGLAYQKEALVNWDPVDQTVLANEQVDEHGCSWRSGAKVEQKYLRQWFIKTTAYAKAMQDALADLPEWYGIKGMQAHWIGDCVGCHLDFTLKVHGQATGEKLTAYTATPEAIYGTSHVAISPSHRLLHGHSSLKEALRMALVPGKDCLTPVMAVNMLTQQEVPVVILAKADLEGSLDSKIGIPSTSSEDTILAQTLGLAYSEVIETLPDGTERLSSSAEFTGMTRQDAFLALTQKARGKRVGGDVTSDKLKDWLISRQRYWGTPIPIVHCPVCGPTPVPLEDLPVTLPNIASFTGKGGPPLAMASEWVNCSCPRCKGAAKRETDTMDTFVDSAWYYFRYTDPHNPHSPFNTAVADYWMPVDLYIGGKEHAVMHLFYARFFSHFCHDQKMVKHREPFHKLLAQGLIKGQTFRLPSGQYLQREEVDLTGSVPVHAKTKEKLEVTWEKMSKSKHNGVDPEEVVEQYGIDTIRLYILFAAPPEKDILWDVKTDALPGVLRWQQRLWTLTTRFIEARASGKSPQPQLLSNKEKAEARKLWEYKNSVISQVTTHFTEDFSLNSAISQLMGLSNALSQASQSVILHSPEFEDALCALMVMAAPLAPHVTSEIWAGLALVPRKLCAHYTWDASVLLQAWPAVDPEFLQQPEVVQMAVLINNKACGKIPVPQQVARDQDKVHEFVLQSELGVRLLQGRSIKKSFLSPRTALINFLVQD
# UniProt Q53H82: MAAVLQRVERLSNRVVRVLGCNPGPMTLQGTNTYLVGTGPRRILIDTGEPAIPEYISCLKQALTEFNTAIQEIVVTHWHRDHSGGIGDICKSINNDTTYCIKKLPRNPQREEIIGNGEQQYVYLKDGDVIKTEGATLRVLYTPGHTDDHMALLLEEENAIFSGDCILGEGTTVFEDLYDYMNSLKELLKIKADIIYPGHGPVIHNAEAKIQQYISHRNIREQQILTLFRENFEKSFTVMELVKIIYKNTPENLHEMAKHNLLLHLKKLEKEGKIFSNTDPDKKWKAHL
# UniProt Q86U70: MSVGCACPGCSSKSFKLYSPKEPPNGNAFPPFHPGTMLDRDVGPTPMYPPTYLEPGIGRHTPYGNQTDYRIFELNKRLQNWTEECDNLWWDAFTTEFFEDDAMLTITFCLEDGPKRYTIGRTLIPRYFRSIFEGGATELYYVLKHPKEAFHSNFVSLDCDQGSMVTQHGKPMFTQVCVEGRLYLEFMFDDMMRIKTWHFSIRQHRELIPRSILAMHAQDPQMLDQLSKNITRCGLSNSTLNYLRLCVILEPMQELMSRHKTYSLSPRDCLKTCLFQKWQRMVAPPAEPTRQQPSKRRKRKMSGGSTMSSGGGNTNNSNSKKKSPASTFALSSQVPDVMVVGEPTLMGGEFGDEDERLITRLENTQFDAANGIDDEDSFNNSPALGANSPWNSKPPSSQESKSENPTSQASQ
# UniProt P18858, whole entry, looked up: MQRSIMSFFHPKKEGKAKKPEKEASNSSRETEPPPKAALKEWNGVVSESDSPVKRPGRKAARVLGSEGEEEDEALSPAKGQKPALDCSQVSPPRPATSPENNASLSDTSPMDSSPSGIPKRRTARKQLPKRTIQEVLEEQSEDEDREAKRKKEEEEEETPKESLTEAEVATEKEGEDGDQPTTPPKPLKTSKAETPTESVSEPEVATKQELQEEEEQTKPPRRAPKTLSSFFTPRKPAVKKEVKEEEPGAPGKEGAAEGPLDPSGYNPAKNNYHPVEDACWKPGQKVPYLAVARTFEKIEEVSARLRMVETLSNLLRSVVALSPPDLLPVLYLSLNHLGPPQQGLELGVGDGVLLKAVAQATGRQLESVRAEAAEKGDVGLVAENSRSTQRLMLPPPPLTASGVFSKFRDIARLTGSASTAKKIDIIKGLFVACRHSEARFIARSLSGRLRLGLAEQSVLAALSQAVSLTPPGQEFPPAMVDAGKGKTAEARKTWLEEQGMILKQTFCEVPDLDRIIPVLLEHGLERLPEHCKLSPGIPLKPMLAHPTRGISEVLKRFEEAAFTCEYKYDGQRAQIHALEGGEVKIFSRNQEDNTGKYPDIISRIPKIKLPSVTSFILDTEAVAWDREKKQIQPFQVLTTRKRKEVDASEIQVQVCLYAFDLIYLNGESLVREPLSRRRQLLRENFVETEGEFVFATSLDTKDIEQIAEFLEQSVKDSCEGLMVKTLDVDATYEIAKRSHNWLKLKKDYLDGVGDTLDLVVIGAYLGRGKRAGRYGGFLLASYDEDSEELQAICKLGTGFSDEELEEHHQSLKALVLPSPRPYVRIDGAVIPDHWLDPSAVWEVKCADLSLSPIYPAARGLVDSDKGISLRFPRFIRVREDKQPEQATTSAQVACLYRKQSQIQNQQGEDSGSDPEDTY
# UniProt P07195, whole entry, looked up: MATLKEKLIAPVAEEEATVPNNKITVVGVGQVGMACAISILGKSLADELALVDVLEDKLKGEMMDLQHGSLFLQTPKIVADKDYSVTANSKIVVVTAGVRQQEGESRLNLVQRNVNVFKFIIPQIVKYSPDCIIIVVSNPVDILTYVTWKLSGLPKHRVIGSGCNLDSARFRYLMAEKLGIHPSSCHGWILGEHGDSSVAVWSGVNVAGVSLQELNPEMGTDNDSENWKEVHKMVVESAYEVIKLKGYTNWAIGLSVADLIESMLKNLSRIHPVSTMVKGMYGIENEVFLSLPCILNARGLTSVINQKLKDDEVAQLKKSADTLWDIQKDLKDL
# UniProt Q8TCA0: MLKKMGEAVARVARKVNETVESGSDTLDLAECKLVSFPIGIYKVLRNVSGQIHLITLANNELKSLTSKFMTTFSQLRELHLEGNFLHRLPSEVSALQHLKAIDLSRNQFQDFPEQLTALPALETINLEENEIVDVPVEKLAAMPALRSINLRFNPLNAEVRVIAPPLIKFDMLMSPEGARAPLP
# This is one part of the list.
# Compound: CNCc1ccc(-c2[nH]c3cc(F)cc4c3c2CCNC4=O)cc1 [rucaparib]
# Test: log2 fold change, soluble protein after heating vs DMSO (PISA); higher = thermal stabilisation; K562 cells, 10 uM, 30 min; active = over 0.2 and 3.5 SD of the protein, either way, in both replicates (recomputed)
# Method in brief: (§1)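 Soluble protein was quantified by TMTpro 16plex LC-MS/MS after channel sums were equalised. It was obtained as the supernatant after 21,000xg for 90 min from pooled aliquots of K562 cells (2×10^6 cells/mL, 10 μM compound, 30 min) heated for 3 min across 48°C-58°C and extracted in PBS with 0.5% NP-40 at 4°C. Thermal stability values are relative to control samples and come from duplicates. They are given as log2 fold changes.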
row,Target,log2 fold change
1,LCLAT1 (UniProt Q6UWP7),inactive: -0.074
2,LAMTOR2 (UniProt Q9Y2Q5),inactive: 0.026
3,LONP1 (UniProt P36776),inactive: -0.036
4,LIN28B (UniProt Q6ZN17),inactive: 0.172
5,LMAN2 (UniProt Q12907),inactive: 0.037
6,LANCL2 (UniProt Q9NS86),inactive: -0.019
7,LCP1 (UniProt P13796),inactive: -0.052
8,LIMK2 isoform 3 (UniProt P53671),inactive: -0.106
9,LRRC40 (UniProt Q9H9A6),inactive: 0.02

# Compound: CNc1nc(-c2ccc3c(N)n[nH]c3c2)cc(N2C[C@@H](C(=O)NC3CCCCC3)CC[C@H]2C)n1
# Test: as above
# Method in brief: as §1
row,Target,log2 fold change
1,LARS (UniProt Q9P2J5),inactive: 0.117
2,KYAT3 (UniProt Q6YP21),inactive: -0.031
3,LAMTOR1 (UniProt Q6IAA8),inactive: -0.028
4,LHPP (UniProt Q9H008),inactive: -0.009
5,LAP3 (UniProt P28838),inactive: -0.021
6,LANCL1 (UniProt O43813),inactive: -0.012
7,LASP1 (UniProt Q14847),inactive: -0.045
8,LRRC47 (UniProt Q8N1G4),inactive: 0.029
9,L3HYPDH (UniProt Q96EM0),inactive: -0.022
10,LRRC57 (UniProt Q8N9N7),inactive: 0.004
11,LIMS1 isoform 3 (UniProt P48059),inactive: -0.032
12,LARS2 (UniProt Q15031),inactive: 0.013
13,LLPH (UniProt Q9BRT6),inactive: 0.069
14,LACTB2 (UniProt Q53H82),inactive: -0.023
15,LCMT1 (UniProt Q9UIC8),inactive: -0.013
16,LDB1 (UniProt Q86U70),inactive: -0.032

row,Target,log2 fold change
1,LENG1 (UniProt Q96BZ8),inactive: -0.025
2,LIG1 (UniProt P18858),inactive: 0.106
3,LETM1 (UniProt O95202),inactive: -0.043
4,LDHB (UniProt P07195),inactive: -0.019
5,LMAN2L isoform 2 (UniProt Q9H0V9),inactive: -0.03
6,LPCAT1 (UniProt Q8NF37),inactive: -0.012
7,LRRC20 (UniProt Q8TCA0),inactive: 0.009
8,LCLAT1 (UniProt Q6UWP7),inactive: -0.068
9,LAMTOR2 (UniProt Q9Y2Q5),inactive: -0.084
10,LONP1 (UniProt P36776),inactive: -0.055
11,LIN28B (UniProt Q6ZN17),inactive: 0.025
12,LMAN2 (UniProt Q12907),inactive: -0.034
13,LANCL2 (UniProt Q9NS86),inactive: -0.015
14,LCP1 (UniProt P13796),inactive: -0.021
15,LIMK2 isoform 3 (UniProt P53671),inactive: -0.23
16,LRRC40 (UniProt Q9H9A6),inactive: 0.077
